This test has as its target T1, BLCAP (human (endogenous in N33 and N9 primary GBM cells)) (UniProt P62952).
T1 sequence: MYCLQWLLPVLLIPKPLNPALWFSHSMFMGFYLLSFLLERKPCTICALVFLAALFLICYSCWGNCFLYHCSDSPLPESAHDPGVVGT
In words: co-IP; cells lysed in IP lysis buffer; 5 ug anti-BLCAP (or anti-STAT3) antibody and 40 ul protein-A/G agarose beads with total lysates of N33 and N9 cells, 4°C overnight; immunoblot for BLCAP, STAT3 and p-STAT3; groups with PRADX overexpression, EZH2 or BLCAP knockdown. In general terms: In western blotting, separated proteins are transferred to a membrane and probed.

The chains behind the UniProt entries cited, without tags or fusion partners.
UniProt P40763: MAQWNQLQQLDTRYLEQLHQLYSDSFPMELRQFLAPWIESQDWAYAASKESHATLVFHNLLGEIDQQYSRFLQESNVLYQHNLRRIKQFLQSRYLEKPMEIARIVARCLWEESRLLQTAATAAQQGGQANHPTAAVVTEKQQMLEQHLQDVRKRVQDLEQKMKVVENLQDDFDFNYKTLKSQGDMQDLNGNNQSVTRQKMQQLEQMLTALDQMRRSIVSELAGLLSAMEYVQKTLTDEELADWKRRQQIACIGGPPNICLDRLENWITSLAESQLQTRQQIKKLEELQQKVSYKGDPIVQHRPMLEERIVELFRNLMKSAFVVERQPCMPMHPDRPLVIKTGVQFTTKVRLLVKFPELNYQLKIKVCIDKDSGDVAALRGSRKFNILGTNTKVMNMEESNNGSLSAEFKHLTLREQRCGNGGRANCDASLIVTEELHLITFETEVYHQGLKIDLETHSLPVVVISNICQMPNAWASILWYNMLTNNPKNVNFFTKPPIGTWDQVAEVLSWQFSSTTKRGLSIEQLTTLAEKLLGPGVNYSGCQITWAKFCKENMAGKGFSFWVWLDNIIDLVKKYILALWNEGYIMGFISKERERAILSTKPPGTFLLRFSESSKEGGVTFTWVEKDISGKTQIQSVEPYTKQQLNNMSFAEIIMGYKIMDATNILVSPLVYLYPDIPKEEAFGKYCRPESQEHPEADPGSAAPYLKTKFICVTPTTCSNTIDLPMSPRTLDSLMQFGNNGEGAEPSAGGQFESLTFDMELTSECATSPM

Results are given in words; binding and its absence hold for the method and conditions named. Binding seen in cells or lysates may run through a third protein. Some results given as binding are weak or reduced against the parent protein; the word gives no strength.

For the substance STAT3 (from UniProt P40763 1-770), the binding result is “binds”.

The record behind these values is paper PMC9106305.
